Assay results taken from publication doi:10.1101/2020.10.07.330316.
These are yes or no findings as the source states them, for the method shown. Binding seen in cells or lysates may run through a third protein. Binding can be weak; no strength is given.

Target: His10::TbKH (Trypanosoma brucei KHARON endogenously tagged at its N-terminus with His10) (Trypanosoma brucei) (UniProt Q38A80)
Test: cross-linking + pull-down

Q: “HA3::TbKHAP1 (T. brucei KHARON associated protein 1 tagged at its N-terminus with HA3) (from UniProt Q386P9)” was tested. Which binding did it give?
A: Its binding is “binds”.
